Earlier results in patent US9302989B2 (priority 2010, dated 2016).

How the values were obtained:
activated T cells = conditions: cited from earlier work
[1] = tested on: vascular smooth muscle cell (VSMC); conditions: in vivo; cited from earlier work
[2] = rat, in vivo; cited from earlier work

| Compound | apoptosis of activated T cells (activated T cells) | proliferation of activated T cells (activated T cells) | intimal thickening and vascular smooth muscle cell (VSMC) proliferation [1] | blood pressure, glucose and lipid metabolism, insulin signalling, endothelial dysfunction [2] |
| --- | --- | --- | --- | --- |
| O=C(/C=C/c1cccnc1)NCCCCC1CCN(C(=O)c2ccccc2)CC1 [FK866] | induce apoptosis | selectively block proliferation |  |  |
| O=S(=O)(c1cccc2cnccc12)N1CCCNCC1 [fasudil] |  |  | significantly suppressed | reduced blood pressure, corrected glucose and lipid metabolism, improved insulin signalling and endothelial dysfunction |
